# System: LLC1
# Test: MTT cell proliferation assay on LLC1
# Type: cell-based
# Conditions: Mus musculus
# Experimental: Non-small cell lung cancer (NSCLC) cell line (lewis lung carcinoma, LLC) expressing a particularly aggressive metastatic phenotype was used. Four HDAC inhibitors molecules were evaluated: Entinostat, Levetiracetatm, Vorinostat (Zolinga®) and valproic acid (VPA) (Depakine®), for the expression of Major Histocompatibility Complex (MHC) Class I and II using Flow cytometry analysis.
# The half maximal inhibitory concentration (IC50) was first determined for each HDACi using an MTT cell proliferation assay. LLC1 was treated with an increasing dose of HDCAi and proliferation was estimated measuring the absorbance after the incorporation by the cell of MMT (3-(4,5-dimethylthiazol-2-yl)-2,5-diphenyl tetrazolium bromide) substrate. The IC50 (levels) for Vorinostat, Entinostat and Levetiracetam were between 2 and 4 μM and around 2 mM for valproic acid.
smiles,measurement,value
"O=C(CCCCCCC(=O)Nc1ccccc1)NO [Vorinostat, N-Hydroxy-N′-phenyloctanediamide]",IC50,2 to 4 µM
